The assay has as its system L1210 leukemia ip in BDF1 mice, survival T/C. The assay can be described thus: NCI In Vivo Anticancer Drug Screen. Data for tumor model L1210 Leukemia (intraperitoneal) in B6D2F1 (BDF1) mice. Conditions: T/C endpoint: mean survival time, higher T/C = longer survival.
Setting [1] is: dose: 100.0 mg/kg/injection, schedule: Q01DX001 (ip), vehicle: saline.
[2] abbreviates: dose: 200.0 mg/kg/injection, schedule: Q01DX001 (ip), vehicle: saline.
The mark [3] stands for this setting: dose: 400.0 mg/kg/injection, schedule: Q01DX001 (ip), vehicle: saline.
Where [4] appears, read: dose: 100.0 mg/kg/injection, schedule: Q04DX003 (ip), vehicle: saline with Tween-80.
[5] abbreviates: dose: 200.0 mg/kg/injection, schedule: Q04DX003 (ip), vehicle: saline with Tween-80.

The list shows only some results of the screen, not a fair sample: it gathers some chemical classes. Other doses and runs of a compound may be missing. T/C: endpoint of the treated group in % of that of the vehicle group. Some entries give survivors of the animals treated and no T/C: the source holds a T/C of zero for them, seemingly a mark for toxic or unscored doses. Counts of survivors are from the toxicity check (mostly the fifth day) where no day follows; animals may have died later. Schedules are NCI's codes, read here as Q, the interval in days (D) or hours (H), X, the number of doses. Where survival is the endpoint, this PubChem deposit counts one and a half times the control or more as active, and values a quarter to a half above the control carry no call in these data; other NCI protocols may use other cut-offs. Some schedule codes hold Z or #, which are not explained here. Some T/C values are marked as having no survivor count here; that says nothing about deaths at the dose. Some T/C values carry the count of animals alive at the toxicity check (mostly the fifth day); without a count or a note in brackets, all were alive then.

`ClCCN1CSc2ccccc21`: the T/C reads like this: (dose: 3.0 mg/kg/injection, schedule: Q01DX Z (ip), vehicle: saline) 92 % of control [5 of 6 alive]; (dose: 10.0 mg/kg/injection, schedule: Q01DX Z (ip), vehicle: saline) 97 % of control; (dose: 30.0 mg/kg/injection, schedule: Q01DX Z (ip), vehicle: saline) 106 % of control; (dose: 100.0 mg/kg/injection, schedule: Q01DX Z (ip), vehicle: saline) 97 % of control.
Consider `O=C(OCCOC(=O)c1cc([N+](=O)[O-])cc([N+](=O)[O-])c1)c1cc([N+](=O)[O-])cc([N+](=O)[O-])c1`, for which the T/C under setting [1] is 92 % of control, the T/C under setting [2] was 87 % of control and the T/C under setting [3] was 92 % of control.
Consider `NP(=O)(N(CCCl)CCCl)N(CCCl)CCCl`, for which the T/C runs as follows: (dose: 100.0 mg/kg/injection, schedule: Q01DX001 (ip), vehicle: DMSO) 101 % of control; (dose: 200.0 mg/kg/injection, schedule: Q01DX001 (ip), vehicle: DMSO) 94 % of control [2 of 3 alive]. Besides, the survivor count (dose: 400.0 mg/kg/injection, schedule: Q01DX001 (ip), vehicle: DMSO) is given as 0 of 3.
On to `CN(C)[N+](=O)[O-]`, for which the T/C is 107 % of control [survivor count not shown] (dose: 80.0 mg/kg/injection, schedule: Q04DX003 (ip), vehicle: saline); 96 % of control [survivor count not shown] (dose: 160.0 mg/kg/injection, schedule: Q04DX003 (ip), vehicle: saline); 104 % of control [survivor count not shown] (dose: 320.0 mg/kg/injection, schedule: Q04DX003 (ip), vehicle: saline).
Turning to `COC(=O)C1(C)COP(=O)(N2CCCCCC2)OC1` (configuration not stated), the T/C by setting is: under setting [1], 86 % of control; under setting [2], 96 % of control; under setting [3], 94 % of control.
For `BrCCNc1ccccc1`, the T/C under setting [1] is 96 % of control, the T/C under setting [2] was 96 % of control and the T/C under setting [3] is 91 % of control [2 of 3 alive].
Regarding `ClC1CSC1`, the T/C (dose: 50.0 mg/kg/injection, schedule: Q01DX001 (ip), vehicle: carboxymethylcellulose (CMC)) was 102 % of control; the T/C (dose: 100.0 mg/kg/injection, schedule: Q01DX001 (ip), vehicle: carboxymethylcellulose (CMC)) was 96 % of control; the T/C (dose: 200.0 mg/kg/injection, schedule: Q01DX001 (ip), vehicle: carboxymethylcellulose (CMC)) is 96 % of control; the T/C (dose: 400.0 mg/kg/injection, schedule: Q01DX001 (ip), vehicle: carboxymethylcellulose (CMC)) is 96 % of control.
As for `CN(C)P1OCCO1`, the T/C by setting is: (dose: 100.0 mg/kg/injection, schedule: Q04DX002 (ip), vehicle: saline with Tween-80) 122 % of control; (dose: 200.0 mg/kg/injection, schedule: Q04DX002 (ip), vehicle: saline with Tween-80) 94 % of control; (dose: 400.0 mg/kg/injection, schedule: Q04DX002 (ip), vehicle: saline with Tween-80) 102 % of control.
`CP(I)(Oc1ccccc1)(Oc1ccccc1)Oc1ccccc1`: the T/C runs as follows: (dose: 50.0 mg/kg/injection, schedule: Q01DX009 (sc), vehicle: olive oil, sesame oil, peanut oil) 108 % of control [survivor count not shown]; (dose: 100.0 mg/kg/injection, schedule: Q01DX001 (sc), vehicle: olive oil, sesame oil, peanut oil) 103 % of control [survivor count not shown]; (dose: 100.0 mg/kg/injection, schedule: Q01DX009 (sc), vehicle: olive oil, sesame oil, peanut oil) 106 % of control [survivor count not shown]; (dose: 200.0 mg/kg/injection, schedule: Q01DX001 (sc), vehicle: olive oil, sesame oil, peanut oil) 103 % of control [survivor count not shown]; (dose: 400.0 mg/kg/injection, schedule: Q01DX001 (sc), vehicle: olive oil, sesame oil, peanut oil) 108 % of control [survivor count not shown].
As for `CCCN(CCC)CCO`, the T/C is, setting by setting: (dose: 50.0 mg/kg/injection, schedule: Q01DX009 (ip), vehicle: saline) 95 % of control [survivor count not shown]; (dose: 100.0 mg/kg/injection, schedule: Q01DX009 (ip), vehicle: saline) 92 % of control [survivor count not shown]; (dose: 100.0 mg/kg/injection, schedule: Q04DX003 (ip), vehicle: saline) 96 % of control [survivor count not shown]; (dose: 200.0 mg/kg/injection, schedule: Q01DX009 (ip), vehicle: saline) 99 % of control [survivor count not shown]; (dose: 200.0 mg/kg/injection, schedule: Q04DX003 (ip), vehicle: saline) 102 % of control [survivor count not shown].
With `Cn1ccc2ccccc21.O=[N+]([O-])c1cc([N+](=O)[O-])cc([N+](=O)[O-])c1`, the T/C by setting is: (dose: 50.0 mg/kg/injection, schedule: Q04DX003 (ip), vehicle: saline with Tween-80) 100 % of control [survivor count not shown]; under setting [4], 100 % of control [survivor count not shown]; under setting [5], 96 % of control [survivor count not shown].
`CCN(CCNCCCNCCSP(=O)(O)O)c1cccc(C)c1`: the T/C under setting [4] was 96 % of control. For the same compound, the survivor count reads like this: under setting [5], 0 of 6; (dose: 400.0 mg/kg/injection, schedule: Q04DX003 (ip), vehicle: saline with Tween-80) 0 of 6.

The values above are taken from PubChem BioAssay AID248 (DTP/NCI, 2004).
